The results in this text go back to article PMC12863303.

Chains of the proteins cited; added tags and fusions are not shown.
UniProt O00567: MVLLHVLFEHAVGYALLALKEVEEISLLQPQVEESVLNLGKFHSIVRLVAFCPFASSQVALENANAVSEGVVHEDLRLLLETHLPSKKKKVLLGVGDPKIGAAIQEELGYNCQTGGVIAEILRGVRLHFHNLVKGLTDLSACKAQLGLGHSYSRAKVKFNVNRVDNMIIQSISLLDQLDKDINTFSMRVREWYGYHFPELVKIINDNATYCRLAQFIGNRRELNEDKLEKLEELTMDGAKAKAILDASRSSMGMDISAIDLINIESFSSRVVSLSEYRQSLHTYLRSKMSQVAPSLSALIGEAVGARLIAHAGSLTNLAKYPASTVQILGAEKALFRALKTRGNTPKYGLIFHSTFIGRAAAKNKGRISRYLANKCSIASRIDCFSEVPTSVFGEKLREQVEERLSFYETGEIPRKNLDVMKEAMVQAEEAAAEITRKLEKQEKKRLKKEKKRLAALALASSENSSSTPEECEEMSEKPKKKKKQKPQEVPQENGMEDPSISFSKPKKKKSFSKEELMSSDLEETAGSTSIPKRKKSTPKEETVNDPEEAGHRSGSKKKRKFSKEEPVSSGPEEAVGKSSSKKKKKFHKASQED

In the assay the target is T1, TurboID–V5–NONO (UniProt Q15233).
T1 sequence: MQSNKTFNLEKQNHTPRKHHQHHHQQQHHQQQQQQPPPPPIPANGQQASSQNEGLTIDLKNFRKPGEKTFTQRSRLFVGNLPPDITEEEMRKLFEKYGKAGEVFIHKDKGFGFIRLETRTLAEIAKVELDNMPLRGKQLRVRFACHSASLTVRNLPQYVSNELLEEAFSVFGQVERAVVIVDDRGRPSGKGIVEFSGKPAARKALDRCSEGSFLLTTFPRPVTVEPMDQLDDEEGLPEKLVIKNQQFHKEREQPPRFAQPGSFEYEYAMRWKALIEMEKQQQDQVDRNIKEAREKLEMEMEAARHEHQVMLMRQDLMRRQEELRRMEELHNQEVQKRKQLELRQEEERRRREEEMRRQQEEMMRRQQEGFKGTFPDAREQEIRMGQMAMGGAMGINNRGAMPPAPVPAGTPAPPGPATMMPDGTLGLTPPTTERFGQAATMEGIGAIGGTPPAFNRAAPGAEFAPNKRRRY
The assay can be described thus: proximity labelling; TurboID–V5–NONO in MCF7 wild-type and NEAT1-knockout cells, DOX 24 h; control, SFN (20 µM) or HBSS starvation for 6 h; biotin 100 µM for the last 30 min; nuclear extracts, streptavidin magnetic beads, TMT LC-MS/MS; proteins enriched under stress against control cells.

Results are given in words; binding and its absence hold for the method and conditions named. Binding seen in cells or lysates may run through a third protein. These calls come from enrichment with a bait or labelling near it, and not all partners need be listed. Sequences can lack the tags named with a protein.

Take “Nucleolar protein 56 (NOP56) (from UniProt O00567 1-594)”: the binding entry is listed as “binds”.
